From the supplement of paper PMC10849652
The list shows a part of the results.

By UniProt entry, the sequences of proteins in these tests, tags left out. Where a name states a change or a piece, a line headed by the entry shows the natural chain unless it says otherwise.
UniProt O75448: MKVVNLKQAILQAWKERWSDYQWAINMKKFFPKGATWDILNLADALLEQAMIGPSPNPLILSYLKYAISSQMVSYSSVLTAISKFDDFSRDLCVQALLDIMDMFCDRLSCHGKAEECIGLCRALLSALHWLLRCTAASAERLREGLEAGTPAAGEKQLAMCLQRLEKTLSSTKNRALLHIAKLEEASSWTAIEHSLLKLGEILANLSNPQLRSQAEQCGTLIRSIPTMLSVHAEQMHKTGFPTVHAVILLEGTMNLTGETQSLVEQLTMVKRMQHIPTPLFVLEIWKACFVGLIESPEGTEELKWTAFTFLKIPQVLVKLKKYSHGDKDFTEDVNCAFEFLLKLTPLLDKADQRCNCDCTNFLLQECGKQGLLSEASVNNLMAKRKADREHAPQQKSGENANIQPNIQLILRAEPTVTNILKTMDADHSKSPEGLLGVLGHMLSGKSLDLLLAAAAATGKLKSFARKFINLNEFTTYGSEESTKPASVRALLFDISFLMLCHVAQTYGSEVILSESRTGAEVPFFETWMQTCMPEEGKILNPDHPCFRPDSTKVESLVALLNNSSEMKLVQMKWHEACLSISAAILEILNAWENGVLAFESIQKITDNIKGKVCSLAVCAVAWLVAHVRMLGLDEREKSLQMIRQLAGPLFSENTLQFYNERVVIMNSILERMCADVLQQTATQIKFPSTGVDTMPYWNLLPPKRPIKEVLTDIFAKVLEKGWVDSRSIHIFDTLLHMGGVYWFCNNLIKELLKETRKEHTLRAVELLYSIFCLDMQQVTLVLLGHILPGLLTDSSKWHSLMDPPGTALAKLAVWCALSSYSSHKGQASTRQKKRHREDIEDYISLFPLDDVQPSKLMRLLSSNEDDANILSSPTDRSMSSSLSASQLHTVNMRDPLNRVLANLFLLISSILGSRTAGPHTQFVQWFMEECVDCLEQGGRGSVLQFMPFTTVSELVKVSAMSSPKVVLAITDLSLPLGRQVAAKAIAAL
UniProt Q06413, whole entry, looked up: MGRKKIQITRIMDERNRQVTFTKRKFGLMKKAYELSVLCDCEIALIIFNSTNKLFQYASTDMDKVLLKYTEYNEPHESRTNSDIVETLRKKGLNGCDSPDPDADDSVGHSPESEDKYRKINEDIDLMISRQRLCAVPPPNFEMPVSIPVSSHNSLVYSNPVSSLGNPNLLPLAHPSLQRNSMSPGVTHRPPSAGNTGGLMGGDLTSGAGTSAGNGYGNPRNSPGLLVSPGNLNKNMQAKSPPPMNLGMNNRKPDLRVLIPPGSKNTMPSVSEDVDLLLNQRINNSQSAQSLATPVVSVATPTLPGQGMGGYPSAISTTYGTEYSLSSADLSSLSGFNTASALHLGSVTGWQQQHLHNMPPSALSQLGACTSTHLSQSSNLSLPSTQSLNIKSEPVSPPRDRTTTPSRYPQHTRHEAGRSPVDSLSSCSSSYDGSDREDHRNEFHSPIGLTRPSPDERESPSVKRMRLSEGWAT
UniProt P23368: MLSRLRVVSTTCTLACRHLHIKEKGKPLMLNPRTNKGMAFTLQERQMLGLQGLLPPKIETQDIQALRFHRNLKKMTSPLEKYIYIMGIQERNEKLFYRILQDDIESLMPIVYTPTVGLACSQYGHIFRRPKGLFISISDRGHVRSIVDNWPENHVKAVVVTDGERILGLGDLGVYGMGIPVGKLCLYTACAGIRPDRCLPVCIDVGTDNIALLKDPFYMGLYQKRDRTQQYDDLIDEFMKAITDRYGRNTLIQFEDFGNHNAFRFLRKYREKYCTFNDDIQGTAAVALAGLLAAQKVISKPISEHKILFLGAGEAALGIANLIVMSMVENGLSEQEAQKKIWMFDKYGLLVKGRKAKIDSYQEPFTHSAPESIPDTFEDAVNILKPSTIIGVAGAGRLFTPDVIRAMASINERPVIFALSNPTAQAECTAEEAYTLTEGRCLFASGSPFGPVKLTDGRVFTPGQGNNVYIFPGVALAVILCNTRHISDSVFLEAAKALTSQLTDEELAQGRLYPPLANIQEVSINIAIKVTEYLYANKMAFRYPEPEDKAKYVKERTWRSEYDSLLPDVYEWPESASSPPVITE
UniProt Q68D91: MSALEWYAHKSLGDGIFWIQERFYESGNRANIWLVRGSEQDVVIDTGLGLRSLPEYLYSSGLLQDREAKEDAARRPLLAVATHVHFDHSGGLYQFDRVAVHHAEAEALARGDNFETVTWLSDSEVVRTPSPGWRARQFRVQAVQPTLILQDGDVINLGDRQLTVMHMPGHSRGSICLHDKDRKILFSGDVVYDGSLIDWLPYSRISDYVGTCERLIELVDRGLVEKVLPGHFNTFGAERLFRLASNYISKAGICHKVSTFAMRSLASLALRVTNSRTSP
UniProt Q9GZY8: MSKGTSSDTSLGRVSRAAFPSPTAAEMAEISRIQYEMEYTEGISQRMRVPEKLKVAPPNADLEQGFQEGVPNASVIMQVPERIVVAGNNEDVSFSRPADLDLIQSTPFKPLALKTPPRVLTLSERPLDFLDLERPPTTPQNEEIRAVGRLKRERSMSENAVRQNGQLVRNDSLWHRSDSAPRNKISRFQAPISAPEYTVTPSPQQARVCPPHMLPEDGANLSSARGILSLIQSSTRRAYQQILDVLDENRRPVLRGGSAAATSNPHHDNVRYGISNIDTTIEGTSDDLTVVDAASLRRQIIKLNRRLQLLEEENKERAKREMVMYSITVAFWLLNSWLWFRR
UniProt Q07820, whole entry, looked up: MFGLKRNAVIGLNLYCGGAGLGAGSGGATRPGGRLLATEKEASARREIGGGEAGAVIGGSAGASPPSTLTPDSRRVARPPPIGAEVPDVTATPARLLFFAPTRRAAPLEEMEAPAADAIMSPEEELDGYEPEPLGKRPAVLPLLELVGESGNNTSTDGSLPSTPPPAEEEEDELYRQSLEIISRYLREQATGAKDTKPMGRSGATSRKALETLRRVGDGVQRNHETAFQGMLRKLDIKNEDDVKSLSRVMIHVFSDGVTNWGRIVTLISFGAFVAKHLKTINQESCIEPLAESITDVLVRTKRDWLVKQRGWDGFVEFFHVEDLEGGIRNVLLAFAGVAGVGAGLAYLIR
UniProt Q96AQ8: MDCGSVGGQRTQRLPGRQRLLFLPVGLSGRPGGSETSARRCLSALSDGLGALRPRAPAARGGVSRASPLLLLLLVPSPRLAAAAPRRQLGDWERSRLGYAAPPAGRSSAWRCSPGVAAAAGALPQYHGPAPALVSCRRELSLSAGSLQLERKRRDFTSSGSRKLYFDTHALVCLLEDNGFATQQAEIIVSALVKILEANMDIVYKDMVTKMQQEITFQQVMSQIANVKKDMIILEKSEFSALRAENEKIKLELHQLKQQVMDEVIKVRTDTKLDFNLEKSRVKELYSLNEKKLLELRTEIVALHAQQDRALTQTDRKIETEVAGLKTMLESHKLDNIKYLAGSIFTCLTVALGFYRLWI
UniProt Q96RQ3: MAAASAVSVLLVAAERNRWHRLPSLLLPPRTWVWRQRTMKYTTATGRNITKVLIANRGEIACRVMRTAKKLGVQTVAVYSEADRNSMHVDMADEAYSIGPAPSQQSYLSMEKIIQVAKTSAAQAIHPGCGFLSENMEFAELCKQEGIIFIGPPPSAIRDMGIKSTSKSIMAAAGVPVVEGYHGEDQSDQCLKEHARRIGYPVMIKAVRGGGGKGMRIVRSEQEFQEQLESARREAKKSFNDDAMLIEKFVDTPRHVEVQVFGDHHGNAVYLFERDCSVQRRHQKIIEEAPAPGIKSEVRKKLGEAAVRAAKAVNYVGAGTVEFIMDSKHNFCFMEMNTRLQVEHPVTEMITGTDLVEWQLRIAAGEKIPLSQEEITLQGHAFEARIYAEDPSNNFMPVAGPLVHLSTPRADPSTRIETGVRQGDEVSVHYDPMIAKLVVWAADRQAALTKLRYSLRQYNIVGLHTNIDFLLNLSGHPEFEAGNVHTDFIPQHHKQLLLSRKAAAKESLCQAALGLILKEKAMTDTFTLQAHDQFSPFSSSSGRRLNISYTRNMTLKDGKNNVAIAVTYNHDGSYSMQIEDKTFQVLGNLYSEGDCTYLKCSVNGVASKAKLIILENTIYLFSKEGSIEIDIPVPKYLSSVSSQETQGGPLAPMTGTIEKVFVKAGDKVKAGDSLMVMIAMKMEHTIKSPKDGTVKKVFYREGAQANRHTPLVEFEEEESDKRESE
UniProt O43513: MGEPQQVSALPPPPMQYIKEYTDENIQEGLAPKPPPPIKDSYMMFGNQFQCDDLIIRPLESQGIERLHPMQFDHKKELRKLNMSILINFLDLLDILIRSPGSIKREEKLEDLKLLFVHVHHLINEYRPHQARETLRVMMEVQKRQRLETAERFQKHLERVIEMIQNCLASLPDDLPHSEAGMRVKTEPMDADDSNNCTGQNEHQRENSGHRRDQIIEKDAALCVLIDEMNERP
UniProt Q96G25: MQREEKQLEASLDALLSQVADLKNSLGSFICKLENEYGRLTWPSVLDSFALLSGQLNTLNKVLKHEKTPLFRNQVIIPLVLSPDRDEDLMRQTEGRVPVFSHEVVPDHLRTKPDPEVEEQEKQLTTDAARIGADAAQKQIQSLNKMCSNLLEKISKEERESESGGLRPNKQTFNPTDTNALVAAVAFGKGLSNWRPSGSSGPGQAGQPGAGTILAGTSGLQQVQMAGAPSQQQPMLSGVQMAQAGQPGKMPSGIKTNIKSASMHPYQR
UniProt Q9BTE3: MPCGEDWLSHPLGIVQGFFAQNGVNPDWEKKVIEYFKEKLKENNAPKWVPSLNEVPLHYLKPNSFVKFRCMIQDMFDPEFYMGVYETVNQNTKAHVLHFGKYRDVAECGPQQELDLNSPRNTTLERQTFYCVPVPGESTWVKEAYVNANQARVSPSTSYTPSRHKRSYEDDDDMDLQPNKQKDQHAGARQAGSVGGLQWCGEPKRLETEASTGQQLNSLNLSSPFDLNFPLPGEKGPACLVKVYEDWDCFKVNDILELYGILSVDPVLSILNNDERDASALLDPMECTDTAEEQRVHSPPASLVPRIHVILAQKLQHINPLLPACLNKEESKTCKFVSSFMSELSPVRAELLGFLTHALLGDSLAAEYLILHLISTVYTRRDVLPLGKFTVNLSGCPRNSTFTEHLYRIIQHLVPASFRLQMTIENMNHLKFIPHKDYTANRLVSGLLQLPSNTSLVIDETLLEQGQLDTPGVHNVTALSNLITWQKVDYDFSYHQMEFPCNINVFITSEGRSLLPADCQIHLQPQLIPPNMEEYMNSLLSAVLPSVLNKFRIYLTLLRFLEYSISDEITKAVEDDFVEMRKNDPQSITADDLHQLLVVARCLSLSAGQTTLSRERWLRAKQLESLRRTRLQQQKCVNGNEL
UniProt Q8NE86: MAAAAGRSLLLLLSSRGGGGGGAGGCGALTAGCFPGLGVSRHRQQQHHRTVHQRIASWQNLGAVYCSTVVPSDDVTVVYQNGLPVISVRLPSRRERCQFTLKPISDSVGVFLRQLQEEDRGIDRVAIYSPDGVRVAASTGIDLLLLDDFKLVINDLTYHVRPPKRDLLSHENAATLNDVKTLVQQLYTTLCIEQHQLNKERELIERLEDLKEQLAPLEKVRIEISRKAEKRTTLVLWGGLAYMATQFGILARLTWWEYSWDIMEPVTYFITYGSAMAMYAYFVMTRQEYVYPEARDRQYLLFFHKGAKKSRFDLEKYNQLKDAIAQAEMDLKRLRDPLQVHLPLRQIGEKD
UniProt O95983: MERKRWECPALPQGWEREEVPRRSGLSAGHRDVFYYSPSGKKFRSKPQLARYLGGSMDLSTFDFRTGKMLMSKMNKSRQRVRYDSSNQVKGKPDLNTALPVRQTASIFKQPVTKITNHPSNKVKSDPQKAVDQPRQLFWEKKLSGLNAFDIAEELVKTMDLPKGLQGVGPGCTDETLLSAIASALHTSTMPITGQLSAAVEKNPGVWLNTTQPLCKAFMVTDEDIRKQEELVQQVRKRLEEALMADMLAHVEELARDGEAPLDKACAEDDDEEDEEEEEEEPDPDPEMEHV
UniProt O00470: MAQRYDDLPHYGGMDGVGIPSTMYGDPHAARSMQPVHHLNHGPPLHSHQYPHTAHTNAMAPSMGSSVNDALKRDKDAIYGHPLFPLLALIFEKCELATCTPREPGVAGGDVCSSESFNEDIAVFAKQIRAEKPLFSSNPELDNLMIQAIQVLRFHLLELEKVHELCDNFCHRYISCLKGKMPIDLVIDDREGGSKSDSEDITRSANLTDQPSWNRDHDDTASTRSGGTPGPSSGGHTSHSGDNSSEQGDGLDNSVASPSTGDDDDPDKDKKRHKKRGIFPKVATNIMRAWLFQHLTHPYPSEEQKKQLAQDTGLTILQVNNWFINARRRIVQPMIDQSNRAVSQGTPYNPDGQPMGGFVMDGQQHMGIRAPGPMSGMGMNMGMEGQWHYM
UniProt Q9H1A3: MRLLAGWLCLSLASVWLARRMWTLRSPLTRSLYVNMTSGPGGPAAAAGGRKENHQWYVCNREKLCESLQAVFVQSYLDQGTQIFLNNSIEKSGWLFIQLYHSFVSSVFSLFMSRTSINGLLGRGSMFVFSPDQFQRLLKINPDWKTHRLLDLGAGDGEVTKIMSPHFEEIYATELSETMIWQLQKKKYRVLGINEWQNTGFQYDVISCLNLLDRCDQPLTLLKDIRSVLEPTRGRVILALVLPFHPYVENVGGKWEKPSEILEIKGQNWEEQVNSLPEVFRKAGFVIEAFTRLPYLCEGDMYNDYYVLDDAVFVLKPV

What was measured:
Test in all cases: log2 fold change, soluble protein after heating vs DMSO (PISA); higher = thermal stabilisation; K562 lysate, 10 uM; active = over 0.2 and 3.5 SD of the protein, either way, in both replicates (recomputed)
[1] = compound: C#Cc1cccc(Nc2ncnc3cc(OCCOC)c(OCCOC)cc23)c1 [erlotinib]
How it was run: (§1)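 K562 pellets were dounce-homogenised in PBS pH 7.4 with 1 mM MgCl2, and the crude extract at 1 mg/mL protein was treated with 10 μM compound for 30 min. Aliquots were heated for 3 min across 48°C-58°C, pooled, and brought to 0.5% NP-40 at 4°C; soluble protein was the supernatant after 21,000xg for 90 min. Soluble protein was quantified by TMTpro 16plex LC-MS/MS with channel sums equalised, and reported as log2 fold change in thermal stability against DMSO controls, with values from duplicates.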

[2] = compound: C/C(=N\NC(=O)C1=CC(=CC=C1)S(=O)(=O)N2CCOCC2)/C3=C(C=CC(=C3)Cl)O
How it was run: as §1

[3] = compound: C1=CC(=CC=C1C2=NC3=C(N2)C=C(C=C3)C(=O)N)OC4=CC=C(C=C4)Cl
How it was run: as §1

[4] = compound: C1=CC2=C(C=CC(=C2)/C=C\3/C(=O)NC(=NCC4=CC=CS4)S3)N=C1
How it was run: as §1

[5] = compound: C1=CC2=NC=CN=C2C=C1/C=C/3\C(=O)NC(=O)S3
How it was run: as §1

[6] = compound: C1=CC=C(C=C1)C2=NC(=C(N2)C3=CC=NC=C3)C4=CC(=C(C=C4)Cl)O
How it was run: as §1

[7] = compound: C1=CC=C2C(=C1)C3=NNC4=CC=CC(=C43)C2=O
How it was run: as §1

[8] = compound: C1CCN(C1)C(=O)NC2=CC=CC(=C2)NC3=NC=C(C(=N3)NCCC4=CN=CN4)Br
How it was run: as §1

[9] = compound: C1CN(CCC1(CC2=CC=C(C=C2)Cl)N)C3=NC=NC4=C3C=CN4
How it was run: as §1

[10] = compound: C1COCCN1CCN2C3=CC=CC=C3N=C2NC(=O)C4=CC(=CC=C4)[N+](=O)[O-] [IRAK-1-4 Inhibitor I]
How it was run: as §1

Measured: log2 fold change

MED24 (UniProt O75448)
inactive: [1] 0.01 | [2] 0.042 | [3] 0.013 | [4] -0.02 | [5] -0.036 | [6] 0 | [7] -0.05 | [8] -0.017 | [9] 0.005 | [10] 0.038

MEF2C isoform 5 (UniProt Q06413)
inactive: [1] -0.174 | [2] -0.019 | [3] 0.046 | [4] -0.044 | [5] -0.088 | [6] 0.076 | [7] 0.015 | [8] 0.126 | [9] -0.085 | [10] -0.079

ME2 (UniProt P23368)
inactive: [1] -0.032 | [2] 0.013 | [3] -0.019 | [4] 0.013 | [5] -0.027 | [6] -0.009 | [7] 0.038 | [8] -0.039 | [9] 0.023 | [10] -0.012

MBLAC2 (UniProt Q68D91)
inactive: [1] -0.052 | [2] -0.042 | [3] 0.01 | [4] -0.055 | [5] 0.012 | [6] 0.018 | [7] 0.065 | [8] 0.026 | [9] -0.007 | [10] -0.027

MFF isoform 2 (UniProt Q9GZY8)
inactive: [1] 0.006 | [2] -0.056 | [3] 0.021 | [4] -0.009 | [5] -0.014 | [6] -0.035 | [7] -0.005 | [8] 0.024 | [9] 0.037 | [10] 0.018

MCL1 (UniProt Q07820)
inactive: [1] -0.099 | [2] -0.004 | [3] 0.208 | [4] -0.181 | [5] 0.036 | [6] -0.065 | [7] 0.151 | [8] -0.055 | [9] -0.043 | [10] -0.015

MCUR1 (UniProt Q96AQ8)
inactive: [1] -0.026 | [2] 0.002 | [3] 0.018 | [4] 0.019 | [5] -0.003 | [6] 0 | [7] -0.007 | [8] 0 | [9] 0.012 | [10] -0.033

MCCC1 (UniProt Q96RQ3)
inactive: [1] 0.037 | [2] -0.028 | [3] 0.048 | [4] -0.052 | [5] 0.025 | [6] -0.029 | [7] -0.085 | [8] -0.022 | [9] 0.077 | [10] -0.008

MED7 (UniProt O43513)
inactive: [1] 0.071 | [2] -0.122 | [3] 0.038 | [4] -0.038 | [5] 0.063 | [6] 0.08 | [7] -0.109 | [8] 0.145 | [9] 0.004 | [10] -0.023

MCTS1 isoform 3 (UniProt Q9ULC4)
inactive: [1] -0.016 | [2] 0.028 | [3] 0.035 | [4] -0.006 | [5] -0.007 | [6] -0.01 | [7] 0.025 | [8] 0.019 | [9] 0.004 | [10] 0.016

MED8 isoform 2 (UniProt Q96G25)
inactive: [1] 0.017 | [2] 0.007 | [3] -0.001 | [4] 0.021 | [5] 0.027 | [6] 0.008 | [7] 0 | [8] 0.014 | [9] 0.088 | [10] -0.005

MEA1 (UniProt Q16626)
inactive: [1] -0.015 | [2] -0.051 | [3] 0.008 | [4] -0.011 | [5] -0.08 | [6] -0.043 | [7] 0.009 | [8] 0.004 | [9] 0.007 | [10] -0.028

METAP2 (UniProt P50579)
inactive: [1] 0 | [2] 0.007 | [3] 0.015 | [4] 0.018 | [5] -0.012 | [6] 0.028 | [7] -0.019 | [8] -0.062 | [9] -0.014 | [10] -0.015

MCMBP (UniProt Q9BTE3)
inactive: [1] 0.038 | [2] 0.069 | [3] 0.024 | [4] 0.063 | [5] 0.01 | [6] -0.017 | [7] 0.001 | [8] -0.023 | [9] 0.072 | [10] 0

MCU (UniProt Q8NE86)
inactive: [1] 0.045 | [2] -0.028 | [3] -0.09 | [4] 0.02 | [5] 0.057 | [6] -0.035 | [7] 0.084 | [8] 0.055 | [9] 0.015 | [10] 0.064

MBD3 (UniProt O95983)
inactive: [1] -0.017 | [2] 0.146 | [3] -0.003 | [4] 0.051 | [5] -0.012 | [6] -0.033 | [7] 0 | [8] -0.011 | [9] -0.045 | [10] -0.028

Looked up one by one from above, 2 records:
METAP2 (UniProt P50579)
inactive: [1] 0 | [2] 0.007 | [3] 0.015 | [4] 0.018 | [5] -0.012 | [6] 0.028 | [7] -0.019 | [8] -0.062 | [9] -0.014 | [10] -0.015

ME2 (UniProt P23368)
inactive: [1] -0.032 | [2] 0.013 | [3] -0.019 | [4] 0.013 | [5] -0.027 | [6] -0.009 | [7] 0.038 | [8] -0.039 | [9] 0.023 | [10] -0.012

Going on with the list.

MEIS1 (UniProt O00470)
inactive: [5] -0.156 | [8] 0.052 | [9] 0.232

METTL9 (UniProt Q9H1A3)
inactive: [1] 0.111 | [3] -0.238 | [5] 0.027 | [6] 0.044 | [10] 0.032
